Reference: PubChem BioAssay AID1259405 (NCATS, 2018)
This is one part, drawn at random, of about 50,000 deposited reagents. Of all reagents, about 4,000 (8%) are marked active. 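Mouse siRNA library applied to hamster cells; one well for each siRNA.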 Reagents against one gene are numbered here. No sequences are given here.

- Test: 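Knock-downs that lift recombinant protein yield in hamster ovary cells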 (primary screen)
- Cell system: Chinese hamster CHO-K1 ovary cells with stable secreted eGFP expression
- Knock-down reagent: single siRNA against mouse genes, 0.8 pmol siRNA per well (2 µl of 400 nM stock)
- Duration: 3 days
- Measured: 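Percent of the per-plate non-targeting control median for intracellular GFP per well by laser scanning cytometry and for cell viability by ATP luminescence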
- Direction: GFP, % of control: higher = more GFP per well, higher productivity; viability (ATP), % of control: higher = more viable cells (more ATP)
- Call rule: 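a knock-down is called active if GFP reaches 120% or more of non-targeting control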

gene knocked down,reagent,"GFP, % of control","viability (ATP), % of control",outcome
Kcnd3,1,76.3,104,inactive
Kcnd3,2,177,122,active
Kcnd3,3,124,135,active
Lrrc10,1,59.9,64,inactive
Lrrc10,2,31.6,19,inactive
Lrrc10,3,138,75,active
Ghr,1,54,71,inactive
Ghr,2,69,42.1,inactive
Ghr,3,32.8,33.6,inactive
Tnfrsf9,1,86.2,90.5,inactive
Tnfrsf9,2,71.4,63.6,inactive
Tnfrsf9,3,81.7,69.4,inactive
Phf13,1,35.3,22,inactive
Phf13,2,54.3,72.6,inactive
Phf13,3,91.9,126,inactive
Hars2,1,60.4,75.1,inactive
Hars2,2,65.6,68.5,inactive
Hars2,3,80.2,86.9,inactive
Vsx1,1,72.2,93.6,inactive
Vsx1,2,79.4,86,inactive
Iqcb1,1,84.6,60.5,inactive
Iqcb1,2,78.2,76.6,inactive
Iqcb1,3,77.3,54.8,inactive
Pisd,1,71.7,59.3,inactive
Pisd,2,69.2,41.7,inactive
Pisd,3,72.6,89.3,inactive
Or9s18,1,54.5,63.8,inactive
Or9s18,2,88.2,85.8,inactive
Or9s18,3,69.9,87,inactive
Defb39,1,55.4,85.2,inactive
Defb39,2,133,101,active
Defb39,3,61.1,62.3,inactive
Zfp300,1,50.2,74,inactive
Zfp300,2,89.1,40,inactive
Zfp300,3,134,85.5,active
Alg14,1,98.2,83.2,inactive
Alg14,2,74.2,70.6,inactive
Alg14,3,35.9,43.4,inactive
Pus10,1,114,76.7,inactive
Pus10,2,117,89.7,inactive
Pus10,3,142,134,active
Efna4,1,85,61,inactive
Efna4,2,121,84.2,active
Efna4,3,29.6,31.2,inactive
Siah1b,1,57.3,36.6,inactive
Siah1b,2,105,75.4,inactive
Siah1b,3,56.5,62.8,inactive
Slc35c1,1,51.2,65.2,inactive
Slc35c1,2,34.2,56.9,inactive
Slc35c1,3,78.2,76.5,inactive
Olah,1,85.5,69.5,inactive
Olah,2,32.9,35.4,inactive
Olah,3,73.2,56.8,inactive
Or6a2,1,91.6,52.5,inactive
Or6a2,2,73.9,72.4,inactive
Or6a2,3,118,104,inactive
Slc25a24,1,79.4,91.1,inactive
Slc25a24,2,125,113,active
Slc25a24,3,73.3,51.9,inactive
Lrg1,1,104,51.7,inactive
Lrg1,2,55.7,72.5,inactive
Lrg1,3,78.9,78,inactive
Pebp1,1,84.1,65.5,inactive
Pebp1,2,140,59.7,active
Pebp1,3,191,63.1,active
Plcg2,1,118,118,inactive
Plcg2,2,152,118,active
Plcg2,3,52.1,62.9,inactive
Atp6v0e,1,136,113,active
Atp6v0e,2,115,133,inactive
Atp6v0e,3,53.1,53.6,inactive
Or12e9,1,156,47.3,active
Or12e9,2,88.6,62.4,inactive
Or12e9,3,59.6,106,inactive
Tmem121,1,74.6,65.8,inactive
Tmem121,2,57.2,65.5,inactive
Tmem121,3,85,97.7,inactive
Cox17,1,124,99.1,active
Cox17,2,117,45.5,inactive
Cox17,3,65.2,78,inactive
Rfx4,1,53.4,64.1,inactive
Rfx4,2,64.7,78.1,inactive
Rfx4,3,96.6,76.2,inactive
Hoxd12,1,84,101,inactive
Hoxd12,2,45.7,80.6,inactive
Hoxd12,3,90.2,57.4,inactive
Psmb5,1,62.1,46.4,inactive
Psmb5,2,58.7,47,inactive
Psmb5,3,35.8,45.9,inactive
Siglecg,1,69.6,83.1,inactive
Siglecg,2,98.8,75.5,inactive
Tvp23b,1,88.4,70.8,inactive
Tvp23b,2,37.6,42.9,inactive
Tvp23b,3,79.5,80.1,inactive
Armc5,1,49.5,58.3,inactive
Armc5,2,58.7,75.5,inactive
Armc5,3,93,75.6,inactive
Zfp90,1,49.8,55,inactive
Zfp90,2,102,106,inactive
Zfp90,3,85.3,66.6,inactive
Smpd4,1,31.2,21.1,inactive
Smpd4,2,67.9,34.7,inactive
Smpd4,3,108,122,inactive
Pramel1,1,85,53.1,inactive
Pramel1,2,83.5,54.4,inactive
Pramel1,3,149,109,active
Pramel1,4,149,109,active
Pramel1,5,76.3,114,inactive
Pramel1,6,84.1,87.1,inactive

A stretch taken from the entries so far:
gene knocked down,reagent,"GFP, % of control","viability (ATP), % of control",outcome
Slc25a24,2,125,113,active
Slc25a24,3,73.3,51.9,inactive
Lrg1,1,104,51.7,inactive
Lrg1,2,55.7,72.5,inactive
Lrg1,3,78.9,78,inactive
Pebp1,1,84.1,65.5,inactive
Pebp1,2,140,59.7,active
Pebp1,3,191,63.1,active
Plcg2,1,118,118,inactive
Plcg2,2,152,118,active
Plcg2,3,52.1,62.9,inactive
Atp6v0e,1,136,113,active
